According to US7105564B1, “Pharmaceutical composition comprising a dual antagonist against PGD2/TXA2 receptors having a [2.2.1] or [3.1.1] bicyclic skeleton” (Shionogi & Co., Ltd., priority 1999, dated 2006):
For at least one compound, name, drawing or mass did not settle the structure.

What was measured:
Male Hartley guinea pigs [1] = test: Antigen-induced bronchoconstriction; assay type: in vivo, guinea pig; conditions: summary of Tables 40-42
Protocol: Antigen-induced bronchoconstriction
Male Hartley guinea pigs were passively sensitized by intravenous injection of anti-OVA serum (antibody titer: 1: 3200), and 48 hours later, the animals were challenged by intravenous injection of OVA (70 micro g/kg). The bronchoconstriction induced by antigen was continuously monitored by means of modified method of Konzett-Rössler technique. The peak value of bronchoconstriction in each animal was used for evaluation of compounds. Compound (I-1b) and compound (B-2) were orally administered 1 hour before, compound (A) 2 hours before antigen challenge. The results are shown as follows. *: P<0.05 vs Vehicle, ##: P<0.01 vs Vehicle. ( ): inhibition %.

Male Hartley guinea pigs [2] = test: Antigen-induced bronchial hyperresponsiveness; assay type: in vivo, guinea pig; conditions: summary of Tables 34-36
Protocol: Antigen-induced bronchial hyperresponsiveness
Male Hartley guinea pigs were actively sensitized to ovalbumin (OVA) by inhalation of aerosolized solution of 1% ovalbumin twice at a week interval. One week after the second sensitization, the animals were treated with antihistamine, diphenhydramine (10 mg/kg, i.p.), and then challenged with 1% OVA aerosol for 5 min. Twenty four hours later, acetylcholine at doses at 3.13, 6. 25, 12.5, 25, 50 and 100 micro g/kg was sequentially injected into the animals which were anesthetized with pentobarbital (30 mg/kg, i.p.). The bronchoconstriction induced by each dose of acetylcholine was monitored by the modified method of Konzett-Rössler technique, and made a dose-response curve of acetylcholine. Using the dose-response curve, the dose required for 200% increase in bronchoconstriction from baseline (PD200) was calculated in each animal and used as an indication of bronchial responsiveness. Compounds were orally administered 1 hour before antigen challenge. **: P<0.01 vs Vehicle(Dunnett's test), ##: P<0.01 vs Vehicle(Student's t test).

SMILES: O=C(O)CCC/C=C\C[C@H]1[C@@H]2CC[C@@H](C2)[C@@H]1NC(=O)c1ccc(S(=O)(=O)n2cccc2)s1 [Compound I-1b, (5Z)-7-{(1R,2S,3S,4S)-3-[5-(pyrrol-1-ylsulfonyl)-thiophen-2-ylcarbonylamino]-bicyclo[2.2.1]hept-2-yl}-5-heptenoic acid]
- antigen-induced bronchoconstriction (in words) (Male Hartley guinea pigs [1]): dramatically suppressed
- induction of bronchial hyperresponsiveness (in words) (Male Hartley guinea pigs [2]): suppressed
